Measurements reported in publication PMC5908787.
Results are given in words; binding and its absence hold for the method and conditions named. Binding seen in cells or lysates may run through a third protein. Some entries that bind do so weakly or less than the wild type. For part of these data: Where a sequence is shown, tags or fusion partners need not be part of it.

Chains of the proteins cited; added tags and fusions are not shown.
UniProt Q62406: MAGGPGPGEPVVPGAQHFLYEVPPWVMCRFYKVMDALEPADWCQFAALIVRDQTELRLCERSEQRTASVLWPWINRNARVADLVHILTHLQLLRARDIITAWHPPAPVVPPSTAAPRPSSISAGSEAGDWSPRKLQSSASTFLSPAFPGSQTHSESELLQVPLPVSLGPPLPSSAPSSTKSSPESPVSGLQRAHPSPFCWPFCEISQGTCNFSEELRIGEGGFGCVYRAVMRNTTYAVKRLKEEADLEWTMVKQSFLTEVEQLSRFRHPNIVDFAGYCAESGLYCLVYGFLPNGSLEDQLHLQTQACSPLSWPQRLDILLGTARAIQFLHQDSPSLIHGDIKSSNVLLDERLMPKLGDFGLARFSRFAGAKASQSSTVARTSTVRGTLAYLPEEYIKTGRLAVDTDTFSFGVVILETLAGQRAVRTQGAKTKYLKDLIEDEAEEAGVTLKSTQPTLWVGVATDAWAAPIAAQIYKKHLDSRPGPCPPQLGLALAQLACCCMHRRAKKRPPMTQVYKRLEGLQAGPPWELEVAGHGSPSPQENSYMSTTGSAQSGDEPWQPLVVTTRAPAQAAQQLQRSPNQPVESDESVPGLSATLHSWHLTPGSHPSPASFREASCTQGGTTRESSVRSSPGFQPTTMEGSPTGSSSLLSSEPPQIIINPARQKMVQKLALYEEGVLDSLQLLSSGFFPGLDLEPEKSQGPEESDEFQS
UniProt Q8R4B8: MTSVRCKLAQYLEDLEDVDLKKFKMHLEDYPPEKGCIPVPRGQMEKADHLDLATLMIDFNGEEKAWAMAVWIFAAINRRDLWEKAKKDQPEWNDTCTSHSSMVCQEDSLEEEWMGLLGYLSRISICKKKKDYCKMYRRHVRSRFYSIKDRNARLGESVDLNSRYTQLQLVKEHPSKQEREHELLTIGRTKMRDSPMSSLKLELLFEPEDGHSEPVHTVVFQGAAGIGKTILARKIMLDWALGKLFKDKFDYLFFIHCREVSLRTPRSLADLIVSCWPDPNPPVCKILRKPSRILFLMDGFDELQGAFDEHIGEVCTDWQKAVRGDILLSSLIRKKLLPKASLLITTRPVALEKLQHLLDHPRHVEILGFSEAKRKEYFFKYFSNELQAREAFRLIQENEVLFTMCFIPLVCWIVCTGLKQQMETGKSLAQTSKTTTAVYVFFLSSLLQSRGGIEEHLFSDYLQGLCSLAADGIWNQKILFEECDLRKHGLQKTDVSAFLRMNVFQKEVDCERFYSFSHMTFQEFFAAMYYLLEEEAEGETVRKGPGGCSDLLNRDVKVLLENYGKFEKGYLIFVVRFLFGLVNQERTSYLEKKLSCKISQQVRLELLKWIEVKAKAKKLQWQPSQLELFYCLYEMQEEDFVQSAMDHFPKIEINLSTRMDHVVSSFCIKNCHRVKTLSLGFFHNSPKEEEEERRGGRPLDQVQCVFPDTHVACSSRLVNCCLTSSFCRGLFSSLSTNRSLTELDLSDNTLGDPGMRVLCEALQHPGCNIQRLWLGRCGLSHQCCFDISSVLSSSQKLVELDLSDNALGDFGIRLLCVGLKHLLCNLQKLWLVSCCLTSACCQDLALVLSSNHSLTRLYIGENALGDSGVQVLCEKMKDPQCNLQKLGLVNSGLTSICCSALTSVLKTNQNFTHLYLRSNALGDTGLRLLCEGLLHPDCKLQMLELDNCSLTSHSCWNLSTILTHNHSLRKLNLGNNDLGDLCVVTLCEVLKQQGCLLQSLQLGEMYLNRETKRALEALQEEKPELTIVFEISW

Columns and labels:
[1] = biological target: T1, myc-tagged murine Pellino2 (mouse) (UniProt Q8BST6); assay: co-IP; IP anti-myc, blot NLRP3; Peli2-/- BMDMs infected with MSCV-Peli2, 100 ng/ml LPS for the indicated times; 0.5x NP-40 lysis buffer, protein A-protein G-agarose overnight at 4 °C
T1 sequence: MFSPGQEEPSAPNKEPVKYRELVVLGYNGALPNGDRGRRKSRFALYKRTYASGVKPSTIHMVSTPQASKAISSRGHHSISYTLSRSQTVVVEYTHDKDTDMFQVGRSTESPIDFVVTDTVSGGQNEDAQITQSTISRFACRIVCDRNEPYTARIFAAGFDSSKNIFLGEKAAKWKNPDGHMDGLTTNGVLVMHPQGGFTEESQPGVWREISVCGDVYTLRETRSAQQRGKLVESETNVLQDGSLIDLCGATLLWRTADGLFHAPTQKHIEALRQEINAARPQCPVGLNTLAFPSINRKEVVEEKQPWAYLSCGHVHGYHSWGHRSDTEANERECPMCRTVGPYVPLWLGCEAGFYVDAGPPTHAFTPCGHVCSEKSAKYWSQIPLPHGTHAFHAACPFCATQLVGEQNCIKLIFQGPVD

[2] = biological target: T1, myc-tagged murine Pellino2 (mouse); assay: co-IP; IP anti-myc, blot NLRP3; immortalized WT and Irak1-/- BMDMs infected with MSCV-Peli2, 100 ng/ml LPS for the indicated times
[3] = biological target: IRAK1 (mouse (endogenous in BMDMs)) (UniProt Q62406); assay: co-IP; IP anti-IRAK1, blot NLRP3; WT and Peli2-/- BMDMs, 100 ng/ml LPS for the indicated times; 0.5x NP-40 lysis buffer, protein A-protein G-agarose overnight at 4 °C

Measured: binding

NLRP3 (from UniProt Q8R4B8 1-1033)
binds: all assays above
